Measurements reported in patent US6043220A, “Threonine-containing protegrins” (IntraBiotics Pharmaceuticals, Inc., priority 1997, dated 2000).
Converted amounts (≈) assume the structure as drawn. Not every detail of the peptide structures is certain; ends, links or a residue may be inferred.

Legend:
[1] = test system: vancomycin resistant Enterococcus faecium (VREF); experiment: MIC, antimicrobial activity against VREF; type: cell-based
From the text: (§1) Methods were as described in WO 97/18826.

[2] = test system: methicillin resistant Staphylococcus aureus (MRSA); experiment: MIC, antimicrobial activity against MRSA; type: cell-based
From the text: as §1

[3] = test system: Pseudomonas aruginosa (Psa); experiment: MIC, antimicrobial activity against Psa; type: cell-based
From the text: as §1

[4] = test system: Candida albicans (C. alb); experiment: MIC, antimicrobial activity against C. alb; type: cell-based
From the text: as §1

[5] = test system: ME-180 (human cervical carcinoma) cells; experiment: Cytotoxicity, MTT assay; type: cell-based; conditions: ME-180 cells
Description: Native protegrin PG-1 (SEQ ID NO:1) and melittin (SEQ ID NO:19) were tested as controls.

VRE = experiment: In vitro serum availability, MCZ assay, indicator bacteria VRE; type: cell-based, vancomycin-resistant Enterococcus faecium or faecalis; conditions: 50 μg/mL peptide; 90% serum as diluent; activity in serum vs same peptide without serum (100%)
Description: Peptide was tested at 50 μg/ml against two different strains of indicator bacteria (E. coli and VRE) both in the presence and absence of serum. For experiments performed in the presence of serum, 90% serum was used as the peptide diluent. Native PG-1 (SEQ ID NO:1) was tested as a control.
Percent availability refers to the activity of the indicated peptide in serum as compared with the activity of the same peptide in the absence of serum (assigned a value of 100%).

**Q.** For `CC(C)C[C@H](NC(=O)[C@H](CCCNC(=N)N)NC(=O)CNC(=O)CNC(=O)[C@@H](N)CCCNC(=N)N)C(=O)N[C@H]1CSSC[C@@H](C(=O)N[C@H](C(=O)NCC(=O)N[C@@H](CCCNC(=N)N)C(N)=O)C(C)C)NC(=O)[C@H](C(C)C)NC(=O)[C@@H]2CSSC[C@H](NC(=O)[C@H](Cc3ccc(O)cc3)NC1=O)C(=O)N[C@@H](CCCNC(=N)N)C(=O)N[C@@H](CCCNC(=N)N)C(=O)N[C@@H](CCCNC(=N)N)C(=O)N[C@@H](Cc1ccccc1)C(=O)N2` [Native PG-1, RGGRLCYCRRRFCVCVGR-NH2, reference compound], which “MIC VREF” value [1] is on record?
**A.** 0.5 μ g/ml

**Q.** And the “MIC MRSA” value [2]?
**A.** 8 μ g/ml

**Q.** And the “MIC Psa” value [3]?
**A.** 1 μ g/ml

**Q.** What about the “MIC C. alb.” value [4] of the same molecule?
**A.** 8 μ g/ml

**Q.** And the “EC50, MTT assay” value [5]?
**A.** 47.2 µg/mL (≈ 21.9 µM)

**Q.** And the “In Vitro Serum Availability (%) VRE” value (VRE)?
**A.** 1.6%
